From PMC9178234
These are yes or no findings as the source states them, for the method shown. Some binding calls cover weakened binding; strength is not graded here. Where a sequence is shown, tags or fusion partners need not be part of it.

The chains behind the UniProt entries cited, without tags or fusion partners.
UniProt P17931: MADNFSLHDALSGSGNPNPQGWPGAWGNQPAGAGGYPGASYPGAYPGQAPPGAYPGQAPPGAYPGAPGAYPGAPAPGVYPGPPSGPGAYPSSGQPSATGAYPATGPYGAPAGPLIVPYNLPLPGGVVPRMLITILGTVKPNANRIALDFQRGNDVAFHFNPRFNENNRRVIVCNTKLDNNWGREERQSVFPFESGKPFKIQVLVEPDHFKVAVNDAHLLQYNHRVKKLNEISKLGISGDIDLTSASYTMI

Target: T1, Trem2-FLAG (UniProt Q99NH8)
T1 sequence: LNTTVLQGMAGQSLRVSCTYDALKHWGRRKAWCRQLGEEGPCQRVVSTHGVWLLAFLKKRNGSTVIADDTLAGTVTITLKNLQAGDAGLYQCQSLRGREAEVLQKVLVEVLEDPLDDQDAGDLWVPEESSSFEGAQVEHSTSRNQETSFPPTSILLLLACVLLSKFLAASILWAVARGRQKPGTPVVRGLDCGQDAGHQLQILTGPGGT
Assay: antibody-capture bead assay read by flow cytometry; Trem2-FLAG captured from lysates of vehicle or LPS-treated (100 ng/ml) BV-2 by anti-FLAG and protein A/G magnetic beads; beads stained with TAMRA-labeled Gal-3 (10 ug/ml) for 20 min at room temperature; mean fluorescence of beads; only the binder purified

binding: binds
Substance: galectin-3 (from UniProt P17931 1-250) (ligand)
